Results reported in PMC12131556.
These are yes or no findings as the source states them, for the method shown. In cells and extracts the contact can be indirect. Binding can be weak; no strength is given.

Protein sequences, listed by entry. Tags and fused reporters are not part of them. Lines headed by an entry give the natural chain unless they say otherwise; changes in a name come on top.
UniProt P40306: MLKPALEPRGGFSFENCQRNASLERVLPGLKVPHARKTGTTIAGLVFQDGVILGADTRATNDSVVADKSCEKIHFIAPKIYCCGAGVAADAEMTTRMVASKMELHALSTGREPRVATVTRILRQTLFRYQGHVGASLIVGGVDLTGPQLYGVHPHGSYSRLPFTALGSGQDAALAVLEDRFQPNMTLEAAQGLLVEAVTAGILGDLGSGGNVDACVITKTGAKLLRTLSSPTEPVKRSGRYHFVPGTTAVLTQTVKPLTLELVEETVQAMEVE

Target: PSMB10 (human (endogenous in THP-1)) (UniProt P40306)
Assay: co-IP; endogenous proteins from THP-1 lysate (25 mM Tris-HCl, 150 mM NaCl, 1 mM EDTA, 1% NP-40), precipitated with the indicated antibody and Protein A/G Plus-agarose at 4 °C, western blot; WT THP-1 cells, for RPS6 or RPL6 with MDM2 also shPSMB10-transfected THP-1 cells

binding: binds
B1: SLC22A16 (protein, UniProt Q86VW1 1-577)
chain: MGSRHFEGIYDHVGHFGRFQRVLYFICAFQNISCGIHYLASVFMGVTPHHVCRPPGNVSQVVFHNHSNWSLEDTGALLSSGQKDYVTVQLQNGEIWELSRCSRNKRENTSSLGYEYTGSKKEFPCVDGYIYDQNTWKSTAVTQWNLVCDRKWLAMLIQPLFMFGVLLGSVTFGYFSDRLGRRVVLWATSSSMFLFGIAAAFAVDYYTFMAARFFLAMVASGYLVVGFVYVMEFIGMKSRTWASVHLHSFFAVGTLLVALTGYLVRTWWLYQMILSTVTVPFILCCWVLPETPFWLLSEGRYEEAQKIVDIMAKWNRASSCKLSELLSLDLQGPVSNSPTEVQKHNLSYLFYNWSITKRTLTVWLIWFTGSLGFYSFSLNSVNLGGNEYLNLFLLGVVEIPAYTFVCIAMDKVGRRTVLAYSLFCSALACGVVMVIPQKHYILGVVTAMVGKFAIGAAFGLIYLYTAELYPTIVRSLAVGSGSMVCRLASILAPFSVDLSSIWIFIPQLFVGTMALLSGVLTLKLPETLGKRLATTWEEAAKLESENESKSSKLLLTTNNSGLEKTEAITPRDSGLGE
